Experimental data published in US7563760 (GENETICS INSTITUTE, dated 2009).
No constants are given. Whether binding was seen depends on the method and setting. Some entries that bind do so weakly or less than the wild type. Sequences can lack the tags named with a protein.

Assays:
[1] = molecular target: T1, chimeric protein comprising the extracellular domain of human E-selectin and the Fc portion of human IgG1 (Example 12, made in baculovirus-infected Trichoplusia ni cells) (human) (UniProt P16581); assay: affinity precipitation from 3H-glucosamine-labelled U937 membrane extracts (FIG. 26)
T1 sequence (looked up): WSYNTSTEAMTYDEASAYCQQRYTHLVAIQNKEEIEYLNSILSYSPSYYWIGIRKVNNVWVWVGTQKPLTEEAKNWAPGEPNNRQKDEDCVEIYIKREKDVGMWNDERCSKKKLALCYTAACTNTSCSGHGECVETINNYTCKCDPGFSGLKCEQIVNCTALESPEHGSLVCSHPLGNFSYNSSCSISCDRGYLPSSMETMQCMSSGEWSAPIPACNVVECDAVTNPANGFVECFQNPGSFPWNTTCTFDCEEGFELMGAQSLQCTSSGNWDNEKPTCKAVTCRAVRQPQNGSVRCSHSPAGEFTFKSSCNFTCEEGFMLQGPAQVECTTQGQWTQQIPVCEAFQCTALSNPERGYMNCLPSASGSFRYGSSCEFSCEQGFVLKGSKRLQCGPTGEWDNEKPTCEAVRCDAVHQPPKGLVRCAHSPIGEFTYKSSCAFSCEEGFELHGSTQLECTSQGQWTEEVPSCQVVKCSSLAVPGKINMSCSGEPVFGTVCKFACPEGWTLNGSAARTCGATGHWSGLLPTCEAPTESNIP

[2] = molecular target: T1, chimeric protein comprising the extracellular domain of human E-selectin and the Fc portion of human IgG1 (Example 12, made in baculovirus-infected Trichoplusia ni cells) (human); assay: sequential affinity capture and immunoprecipitation (FIG. 27)
[3] = molecular target: T1, chimeric protein comprising the extracellular domain of human E-selectin and the Fc portion of human IgG1 (Example 12, made in baculovirus-infected Trichoplusia ni cells) (human); assay: affinity precipitation with E-selectin chimera

Measured: binding

B1: native PSGL-1 of U937 cells (major glycoprotein captured from detergent extracts) (ligand, human, UniProt Q14242 42-412, looked up)
chain: QATEYEYLDYDFLPETEPPEMLRNSTDTTPLTGPGTPESTTVEPAARRSTGLDAGGAVTELTTELANMGNLSTDSAAMEIQTTQPAATEAQTTQPVPTEAQTTPLAATEAQTTRLTATEAQTTPLAATEAQTTPPAATEAQTTQPTGLEAQTTAPAAMEAQTTAPAAMEAQTTPPAAMEAQTTQTTAMEAQTTAPEATEAQTTQPTATEAQTTPLAAMEALSTEPSATEALSMEPTTKRGLFIPFSVSSVTHKGIPMAASNLSVNYPVGAPDHISVKQCLLAILILALVATIFFVCTVVLAVRLSRKGHMYPVRNYSPTEMVCISSLLPDGGEGPSATANGGLSKAKSPGLTPEPREDREGDDLTLHSFLP
modifications: native myeloid glycosylation, 3H-glucosamine labelled
notes: 200-220 kD non-reduced, 100-120 kD reduced; also called U937 ligand; major U937 glycoprotein
binds: all assays above
